The whole screen tested about 410,000 compounds, of which about 18,000 (4.4%) were called active. Inconclusive results, whose numbers are uncertain, are shown with a selection of clear calls. No stated cut-off is given here; in the data, active means activity change below about -60%; inconclusive means no clear call, values can overlap the other calls; inactive means above about -39%.
Test: qHTS Assay for inhibitors of the human cytomegalovirus (HCMV)
Settings: HFF cells, HCMV-luciferase reporter, 72 h; at 57.5 µM; stronger effect = lower value
In short: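 After 16 h attachment at 37C, HFF cells received test compound and HCMV-luciferase (1 PFU/cell); reporter luminescence read 72 h later, data normalized against buffer-only and known inhibitor Salinomycin.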
On the % scale 0 is the no-effect control and ±100 the full control effect.

Row | Structure (SMILES) | activity change, negative = inhibition
1 | Cc1ccc(NS(=O)(=O)c2ccc3c(c2)oc(=O)n3C)cc1 | active: -63.3%
2 | Cc1ccc(-c2nn(C(C)(C)C)c3ncnc(NS(=O)(=O)c4ccc([N+](=O)[O-])cc4)c23)cc1 | inactive: -27.9%
3 | Cc1cc(C)c2nc(C)cc(Nc3cccc(C(=O)O)c3)c2c1 | inactive: -5.3%
4 | Cc1cccc(C)c1NC(=O)C(NC=O)c1ccc(Cl)cc1 (stereo not drawn) | inconclusive: -43.7%
5 | Cc1ccc(S(=O)(=O)N(C)C)cc1-n1c(SCC(=O)Nc2ccccc2)nc2ccccc2c1=O | active: -71.8%
6 | O=C1C(c2ccc(F)cc2)N(CCc2ccc(Cl)cc2)C(=O)CN1C1CCCCC1 (stereo not drawn) | inconclusive: -48.2%
7 | O=C(NNC(=O)c1cc2ccccc2oc1=O)c1ccccc1 | inactive: 47.5%
8 | COc1cccc(-c2nc(CS(=O)(=O)CC(=O)NC3CCCc4ccccc43)c(C)o2)c1 (stereo not drawn) | inconclusive: -44.9%
9 | O=C(N/N=C/c1ccco1)C1CC1 | inactive: -23.1%
10 | COc1ccccc1NCC(=O)N/N=C/c1c(O)ccc2ccccc12 | active: -94.8%
11 | CCC(=O)N1CCc2cc(Br)cc(S(=O)(=O)NCCc3cccc(C)c3)c21 | inconclusive: -51.3%
12 | CCCCOc1ccc(/C=N/NC(=O)c2nnn(-c3nonc3N)c2C)cc1 | inconclusive: -46%
13 | Cc1n(CC(O)COCc2ccccc2)c2ccccc2[n+]1C (stereo not drawn) | inactive: 26.3%
14 | CC1CCN(Cc2c(C(=O)N/N=C/c3ccccc3O)nnn2-c2nonc2N)CC1 | active: -95.3%
15 | OC(COCC1COc2ccccc2O1)CN1CCN(c2ccc(F)cc2)CC1 (stereo not drawn) | inconclusive: -52.2%
16 | CCCCn1c(N)c(N(CCOC)C(=O)CSCc2ccccc2C)c(=O)[nH]c1=O | active: -96.8%
17 | CCCCCC(=O)NNC(=S)NC(C)=O | inconclusive: -40.8%
18 | Cc1ccc(C(=O)COc2ccccc2N2C(=O)c3ccccc3C2=O)cc1 | inactive: 27.4%
19 | O=C(CSc1ccc2c(c1)OCCO2)Nc1ccc(Br)cc1 | inconclusive: -42.4%
20 | CCCn1cc(C(=O)O)cn1 | inconclusive: -43.8%
21 | CCOC(=O)CSc1nc2ccccc2c(=O)n1CCCCCC(=O)NCc1ccco1 | inconclusive: -56.4%
22 | O=C(Cn1c(SCc2ccc(F)cc2)nc2cccnc21)Nc1ccccc1F | inactive: 6.86%

Row | Structure (SMILES) | activity change, negative = inhibition
23 | CC(=O)c1cccc(NC(=O)c2sc(-n3nc(C)c(Cc4ccccc4)c3C)nc2C)c1 | active: -61.3%
24 | Cn1c(=O)c2c(nc(Oc3ccccc3Br)n2C)n(C)c1=O | inconclusive: -43.2%
25 | CCC(=O)N1CCc2cc(S(=O)(=O)CCC(=O)N3CCCC(C)C3)ccc21 (stereo not drawn) | inactive: -27.3%
26 | O=C(N/N=C/c1ccc[nH]1)c1ccccc1O | active: -91.8%
27 | O=C(CN1C(=O)c2ccccc2C1=O)NC1(C(=O)O)CCCC1 | inconclusive: -57.6%
28 | CCN1CCN(c2nc(N)c([N+](=O)[O-])c(Nc3ccc(C)cc3)n2)CC1 | inactive: 15.8%
29 | Cc1ccc(S(=O)(=O)N2[C@@H](c3cccc(Cl)c3)C(C(=O)OC(C)(C)C)=CC[C@H]2c2ccc(C(C)C)cc2)cc1 | inconclusive: -42%
30 | C=CCOC(=O)C1=C[C@@H](c2ccc3c(c2)OCO3)C[C@@H](OCCCCO)O1 | inactive: 20.6%
31 | Oc1ccc(/C=N/N=C(c2ccccc2)c2ccccc2)c(O)c1O | inconclusive: -41.4%
32 | Cc1ccc(-n2nc3c(=O)n(C(C)C(=O)NCc4ccc(OC(C)C)cc4)nc(C)c3c2C)cc1 (stereo not drawn) | active: -77.4%
33 | CCN(CC)CCNC(=O)CCc1c(C)nc2c(c(C)nn2-c2ccc(C)cc2)c1C | active: -92.9%
34 | O=C(NC1CCCCC1)C(c1cccs1)N(C(=O)c1ccco1)c1ccc2c(c1)OCCO2 (stereo not drawn) | active: -61.4%
35 | O=C(CSc1ccc(Br)cc1)NCC1CCCO1 (stereo not drawn) | inconclusive: -46.4%
36 | O=C(CN1CCN(c2ccccc2)CC1)Nc1ccncc1 | inconclusive: -49.6%
37 | CCN(CC)C(=O)Cn1cc(SCC(=O)NC2CCCC2)c2ccccc21 | inconclusive: -48.1%
38 | CCOc1ccc(NC2=CC(=O)C(=O)c3ccccc32)cc1 | inconclusive: -60%
39 | CC(NC(=O)COC(=O)c1ccc(N(C)C)cc1)c1ccccc1 (stereo not drawn) | inactive: 1.5%
40 | CCCS(=O)(=O)NC(=O)C1(C)CCCN(C(=O)c2cc(-c3ccccc3)cs2)C1 (stereo not drawn) | inactive: -39.7%
41 | CC(=O)[C@@]1(O)C(C)CC2C3C=C(C)C4=Cc5c(cnn5-c5ccccc5)C[C@]4(C)C3C(O)C[C@@]21C (stereo partly drawn) | inconclusive: -50.1%
42 | O=C(CSc1nnc(Nc2ccccc2)s1)Nc1cccnc1Cl | inconclusive: -50.6%
43 | CC(C(=O)NCCc1ccc(F)cc1)N1CCN(Cc2ccccc2)CC1 (stereo not drawn) | inconclusive: -59.1%

Single values from above.
activity change, negative = inhibition with C=CCOC(=O)C1=C[C@@H](c2ccc3c(c2)OCO3)C[C@@H](OCCCCO)O1 is entered as inactive: 20.6%
activity change, negative = inhibition with CCOc1ccc(NC2=CC(=O)C(=O)c3ccccc32)cc1 is entered as inconclusive: -60%
activity change, negative = inhibition with CCN1CCN(c2nc(N)c([N+](=O)[O-])c(Nc3ccc(C)cc3)n2)CC1 is entered as inactive: 15.8%

Reference: PubChem BioAssay AID1259415 (National Center for Advancing Translational Sciences (NCATS), 2018)
